Measurements reported in PubChem BioAssay AID1159578 (Peter MacCallum Cancer Centre, 2015).

Purpose: 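Knock-downs that alter how fast lymphatic endothelial cells migrate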 (primary screen)
System: human lymphatic endothelial cells
Reagents: siRNA pool against human genes, 40 nM
Timing: 48 h after transfection
Read-out: 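High-content imaging of dye-stained cells in a scratch assay measures filled wound area and nuclei per well; duplicate means given as ratio to mock and robust z-score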
Scale: migration robust z-score: higher = faster migration into the scratch; migration relative to mock: higher = more scratch area covered than mock; nuclei per well: higher = more cells in the well
Rule for the call: 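Pools averaging fewer than 3300 nuclei are never called; remaining pools count as changed when migration robust z lies outside -2 to 2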
Calls: active = migration changed; inactive = no migration change, or too few cells
Shown is an unselected part of about 18,000 reagents tested. In the full data, about 1,030 (5.7%) got an active call. 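Inactive calls also include pools with fewer than 3300 nuclei, whose migration was not assessed.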 Raw values are not corrected between plates. Unmarked entries are inactive.

| gene | migration robust z-score | migration class with cell-count check | migration relative to mock | nuclei per well, duplicate mean |
| --- | --- | --- | --- | --- |
| SP140 (SP140 nuclear body protein) | 0.19 | migration z between -2 and 2; enough cells | 0.94 | 5570 |
| GFPT1 (glutamine--fructose-6-phosphate transaminase 1) | 0.57 | migration z between -2 and 2; enough cells | 0.92 | 6132 |
| UNC13B (unc-13 homolog B) | 1.58 | migration z between -2 and 2; enough cells | 1.29 | 5982 |
| PUM3 (pumilio RNA binding family member 3) | -1.12 | migration z between -2 and 2; enough cells | 0.6 | 4916 |
| ZNF322P1 (zinc finger protein 322 pseudogene 1) | 0.15 | migration z between -2 and 2; enough cells | 0.92 | 4362 |
| MUC16 (mucin 16, cell surface associated) | -0.97 | migration z between -2 and 2; enough cells | 0.64 | 6130 |
| INSL5 (insulin like 5) | 0.73 | migration z between -2 and 2; enough cells | 1.08 | 6476 |
| NUDC (nuclear distribution C, dynein complex regulator) | -1.53 | migration z between -2 and 2; enough cells | 0.49 | 6285 |
| GLRA2 (glycine receptor alpha 2) | 0.18 | migration z between -2 and 2; enough cells | 0.84 | 4968 |
| SLC26A9 | 0.8 | migration z between -2 and 2; enough cells | 0.96 | 5104 |
| RALA (RAS like proto-oncogene A) | 0.18 | migration z between -2 and 2; enough cells | 0.84 | 5614 |
| GCHFR (GTP cyclohydrolase I feedback regulator) | -1.31 | migration z between -2 and 2; enough cells | 0.54 | 4354 |
| HOMER2 (homer scaffold protein 2) | 0.55 | migration z between -2 and 2; enough cells | 1.02 | 5678 |
| ARHGAP29 (Rho GTPase activating protein 29) | -0.11 | migration z between -2 and 2; enough cells | 0.86 | 5126 |
| KIF17 (kinesin family member 17) | -0.62 | migration z between -2 and 2; enough cells | 0.68 | 5730 |
| TCP1 (t-complex 1) | -0.05 | migration z between -2 and 2; enough cells | 0.8 | 5971 |
| USP18 (ubiquitin specific peptidase 18) | -2.88 (active) | migration z below -2; enough cells | 0.25 | 3788 |
| ZNF467 (zinc finger protein 467) | -2.36 (active) | migration z below -2; enough cells | 0.28 | 5258 |
| STX8 (syntaxin 8) | -0.9 | migration z between -2 and 2; enough cells | 0.66 | 5128 |
| WDR83OS (WD repeat domain 83 opposite strand) | -1.92 | migration z between -2 and 2; enough cells | 0.38 | 5143 |
| KCNJ6 (potassium inwardly rectifying channel subfamily J member 6) | -0.72 | migration z between -2 and 2; enough cells | 0.66 | 8352 |
| ZNF71 (zinc finger protein 71) | -1.29 | migration z between -2 and 2; enough cells | 0.55 | 4610 |
| DUX4L1 (double homeobox 4 like 1 (pseudogene)) | 1.56 | migration z between -2 and 2; enough cells | 1.29 | 7028 |
| MED14 (mediator complex subunit 14) | -1.27 | migration z between -2 and 2; enough cells | 0.56 | 4927 |
| SHOC1 (shortage in chiasmata 1) | -0.26 | migration z between -2 and 2; enough cells | 0.82 | 6454 |
| BICDL1 (BICD family like cargo adaptor 1) | -0.14 | migration z between -2 and 2; enough cells | 0.84 | 5482 |
| TMEM257 (retired record) | 0.14 | migration z between -2 and 2; enough cells | 0.92 | 6644 |
| DIPK2B (divergent protein kinase domain 2B) | -1.24 | migration z between -2 and 2; enough cells | 0.56 | 6143 |
| CETN1 (centrin 1) | -1.22 | migration z between -2 and 2; enough cells | 0.57 | 3873 |
| PGM5 (phosphoglucomutase 5) | -1.38 | migration z between -2 and 2; enough cells | 0.54 | 5240 |
| GSPT2 (G1 to S phase transition 2) | 0.18 | migration z between -2 and 2; enough cells | 0.84 | 4570 |
| SBDS (SBDS ribosome maturation factor) | 0.15 | migration z between -2 and 2; enough cells | 0.92 | 5832 |
| TAAR9 (trace amine associated receptor 9) | 0.05 | migration z between -2 and 2; enough cells | 0.82 | 5049 |
| N4BP2 (NEDD4 binding protein 2) | 0.34 | migration z between -2 and 2; enough cells | 0.87 | 6484 |
| MIEF1 (mitochondrial elongation factor 1) | -2.47 (active) | migration z below -2; enough cells | 0.24 | 4921 |
| RBPJL | -1.68 | migration z between -2 and 2; enough cells | 0.48 | 4322 |
| DZIP3 (DAZ interacting zinc finger protein 3) | 0.1 | migration z between -2 and 2; enough cells | 0.82 | 5066 |
| SLC17A5 | 0.34 | migration z between -2 and 2; enough cells | 0.87 | 6288 |
| OR10H5 (olfactory receptor family 10 subfamily H member 5) | 0.8 | migration z between -2 and 2; enough cells | 1.09 | 5012 |
| FKRP (fukutin related protein) | -0.65 | migration z between -2 and 2; enough cells | 0.72 | 4978 |
| BCL6 (BCL6 transcription repressor) | -0.36 | migration z between -2 and 2; enough cells | 0.8 | 7520 |
| ADCY6 (adenylate cyclase 6) | 2.1 (active) | migration z above 2; enough cells | 1.21 | 5850 |
| RAI1 (retinoic acid induced 1) | 1.05 | migration z between -2 and 2; enough cells | 1.16 | 5822 |
| LYPD2 (LY6/PLAUR domain containing 2) | -0.43 | migration z between -2 and 2; enough cells | 0.77 | 5348 |
| SI (sucrase-isomaltase) | -0.29 | migration z between -2 and 2; enough cells | 0.75 | 5206 |
| OR4F21 (olfactory receptor family 4 subfamily F member 21) | -0.11 | migration z between -2 and 2; enough cells | 0.86 | 5314 |
| CDKN2A (cyclin dependent kinase inhibitor 2A) | 0.68 | migration z between -2 and 2; enough cells | 0.94 | 5748 |
| RPS13 (ribosomal protein S13) | -1.82 | migration z between -2 and 2; enough cells | 0.42 | 4002 |
| PFAS (phosphoribosylformylglycinamidine synthase) | -0.38 | migration z between -2 and 2; enough cells | 0.78 | 7111 |
| PLAU (plasminogen activator, urokinase) | -0.1 | migration z between -2 and 2; enough cells | 0.78 | 5192 |
| SDAD1 (SDA1 domain containing 1) | 0.11 | migration z between -2 and 2; enough cells | 0.91 | 4627 |
| ELF2 (E74 like ETS transcription factor 2) | 0.94 | migration z between -2 and 2; enough cells | 0.99 | 5924 |
| DEFB136 (defensin beta 136) | -0.37 | migration z between -2 and 2; enough cells | 0.79 | 5083 |
| EPHB1 (EPH receptor B1) | -1.12 | migration z between -2 and 2; enough cells | 0.59 | 4880 |
| CLC (Charcot-Leyden crystal galectin) | -0.08 | migration z between -2 and 2; enough cells | 0.79 | 5500 |
| MYCBP2 (MYC binding protein 2) | 0.86 | migration z between -2 and 2; enough cells | 0.97 | 4752 |
| BHLHE41 (basic helix-loop-helix family member e41) | 1.83 | migration z between -2 and 2; enough cells | 1.36 | 6983 |

A portion taken from the entries so far:
| gene | migration robust z-score | migration class with cell-count check | migration relative to mock | nuclei per well, duplicate mean |
| --- | --- | --- | --- | --- |
| DUX4L1 (double homeobox 4 like 1 (pseudogene)) | 1.56 | migration z between -2 and 2; enough cells | 1.29 | 7028 |
| MED14 (mediator complex subunit 14) | -1.27 | migration z between -2 and 2; enough cells | 0.56 | 4927 |
| SHOC1 (shortage in chiasmata 1) | -0.26 | migration z between -2 and 2; enough cells | 0.82 | 6454 |
| BICDL1 (BICD family like cargo adaptor 1) | -0.14 | migration z between -2 and 2; enough cells | 0.84 | 5482 |
| TMEM257 (retired record) | 0.14 | migration z between -2 and 2; enough cells | 0.92 | 6644 |
| DIPK2B (divergent protein kinase domain 2B) | -1.24 | migration z between -2 and 2; enough cells | 0.56 | 6143 |
| CETN1 (centrin 1) | -1.22 | migration z between -2 and 2; enough cells | 0.57 | 3873 |
